Measurements taken from PubChem BioAssay (EPA / NIEHS).
For part of these data: This list holds what a sample rich in hits left over. Results filed as inconclusive are left out. The list shows a part of the results, in another mix than the full data. Active and inactive are the calls of the source. The calls were made as follows, unless noted: active = hit-call score of the fitted dose curve at least 0.9, where 1 is the maximum; inactive = score below 0.9.

Chains of the proteins cited; added tags and fusions are not shown. Lines headed by an entry give the natural chain unless they say otherwise; changes in a name come on top.
UniProt P03372, whole entry, looked up: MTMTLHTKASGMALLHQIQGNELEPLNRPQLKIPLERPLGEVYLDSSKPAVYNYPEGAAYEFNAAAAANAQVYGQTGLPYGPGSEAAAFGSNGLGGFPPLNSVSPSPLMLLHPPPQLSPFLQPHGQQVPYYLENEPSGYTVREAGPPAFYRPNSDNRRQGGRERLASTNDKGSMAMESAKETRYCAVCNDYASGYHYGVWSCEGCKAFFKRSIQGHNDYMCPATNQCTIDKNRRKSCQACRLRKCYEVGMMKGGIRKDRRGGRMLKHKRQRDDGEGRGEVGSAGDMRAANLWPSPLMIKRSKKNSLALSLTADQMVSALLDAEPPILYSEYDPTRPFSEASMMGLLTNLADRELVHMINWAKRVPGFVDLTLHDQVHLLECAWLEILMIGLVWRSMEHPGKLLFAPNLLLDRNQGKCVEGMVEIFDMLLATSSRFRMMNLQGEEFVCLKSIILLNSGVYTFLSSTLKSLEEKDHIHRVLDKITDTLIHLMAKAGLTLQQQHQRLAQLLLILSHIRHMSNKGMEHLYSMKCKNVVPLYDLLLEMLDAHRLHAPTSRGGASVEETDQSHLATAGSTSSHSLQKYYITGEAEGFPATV
UniProt P21452, whole entry, looked up: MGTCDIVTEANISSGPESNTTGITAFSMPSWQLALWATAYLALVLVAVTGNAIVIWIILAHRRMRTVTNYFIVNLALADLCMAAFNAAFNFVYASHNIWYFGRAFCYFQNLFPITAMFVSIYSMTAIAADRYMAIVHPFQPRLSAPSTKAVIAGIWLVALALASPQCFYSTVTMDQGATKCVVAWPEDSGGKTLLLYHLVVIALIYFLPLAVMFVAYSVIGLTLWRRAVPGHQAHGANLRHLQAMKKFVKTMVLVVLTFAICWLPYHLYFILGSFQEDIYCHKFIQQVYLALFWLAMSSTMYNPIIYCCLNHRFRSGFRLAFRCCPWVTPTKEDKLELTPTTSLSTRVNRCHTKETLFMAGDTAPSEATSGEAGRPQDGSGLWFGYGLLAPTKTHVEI
UniProt O15111: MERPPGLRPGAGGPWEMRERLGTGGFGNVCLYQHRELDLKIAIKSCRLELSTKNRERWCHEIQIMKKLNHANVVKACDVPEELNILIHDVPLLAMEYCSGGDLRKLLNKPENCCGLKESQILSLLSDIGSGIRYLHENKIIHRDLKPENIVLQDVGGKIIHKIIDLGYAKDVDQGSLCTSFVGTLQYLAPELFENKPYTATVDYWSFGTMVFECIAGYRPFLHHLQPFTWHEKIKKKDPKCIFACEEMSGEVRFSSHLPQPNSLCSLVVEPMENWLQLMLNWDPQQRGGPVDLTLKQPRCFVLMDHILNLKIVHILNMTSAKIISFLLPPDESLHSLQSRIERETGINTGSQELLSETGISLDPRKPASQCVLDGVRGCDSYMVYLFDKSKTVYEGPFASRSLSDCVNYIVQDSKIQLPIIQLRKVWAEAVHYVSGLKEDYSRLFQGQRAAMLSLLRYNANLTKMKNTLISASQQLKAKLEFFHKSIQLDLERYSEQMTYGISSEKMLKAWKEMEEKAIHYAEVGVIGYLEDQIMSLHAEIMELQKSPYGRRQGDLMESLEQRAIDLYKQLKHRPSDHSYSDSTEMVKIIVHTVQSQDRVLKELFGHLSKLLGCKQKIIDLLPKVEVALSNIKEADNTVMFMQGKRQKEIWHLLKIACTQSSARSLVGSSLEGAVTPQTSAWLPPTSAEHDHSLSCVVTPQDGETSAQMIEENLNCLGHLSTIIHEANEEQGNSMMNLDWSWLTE
UniProt P19793: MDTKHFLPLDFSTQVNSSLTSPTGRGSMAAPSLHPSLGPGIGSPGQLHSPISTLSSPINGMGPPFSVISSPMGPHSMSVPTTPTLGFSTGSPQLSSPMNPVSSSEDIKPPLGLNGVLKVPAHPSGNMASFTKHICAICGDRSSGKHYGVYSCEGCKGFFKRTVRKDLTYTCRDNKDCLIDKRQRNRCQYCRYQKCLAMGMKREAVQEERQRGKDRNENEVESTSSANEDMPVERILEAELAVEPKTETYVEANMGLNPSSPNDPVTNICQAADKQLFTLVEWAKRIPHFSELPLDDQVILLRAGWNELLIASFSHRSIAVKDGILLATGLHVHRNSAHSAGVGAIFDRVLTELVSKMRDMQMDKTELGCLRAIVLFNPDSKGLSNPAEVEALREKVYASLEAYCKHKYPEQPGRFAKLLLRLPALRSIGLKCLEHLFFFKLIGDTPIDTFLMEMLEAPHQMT
UniProt P49327, whole entry, looked up: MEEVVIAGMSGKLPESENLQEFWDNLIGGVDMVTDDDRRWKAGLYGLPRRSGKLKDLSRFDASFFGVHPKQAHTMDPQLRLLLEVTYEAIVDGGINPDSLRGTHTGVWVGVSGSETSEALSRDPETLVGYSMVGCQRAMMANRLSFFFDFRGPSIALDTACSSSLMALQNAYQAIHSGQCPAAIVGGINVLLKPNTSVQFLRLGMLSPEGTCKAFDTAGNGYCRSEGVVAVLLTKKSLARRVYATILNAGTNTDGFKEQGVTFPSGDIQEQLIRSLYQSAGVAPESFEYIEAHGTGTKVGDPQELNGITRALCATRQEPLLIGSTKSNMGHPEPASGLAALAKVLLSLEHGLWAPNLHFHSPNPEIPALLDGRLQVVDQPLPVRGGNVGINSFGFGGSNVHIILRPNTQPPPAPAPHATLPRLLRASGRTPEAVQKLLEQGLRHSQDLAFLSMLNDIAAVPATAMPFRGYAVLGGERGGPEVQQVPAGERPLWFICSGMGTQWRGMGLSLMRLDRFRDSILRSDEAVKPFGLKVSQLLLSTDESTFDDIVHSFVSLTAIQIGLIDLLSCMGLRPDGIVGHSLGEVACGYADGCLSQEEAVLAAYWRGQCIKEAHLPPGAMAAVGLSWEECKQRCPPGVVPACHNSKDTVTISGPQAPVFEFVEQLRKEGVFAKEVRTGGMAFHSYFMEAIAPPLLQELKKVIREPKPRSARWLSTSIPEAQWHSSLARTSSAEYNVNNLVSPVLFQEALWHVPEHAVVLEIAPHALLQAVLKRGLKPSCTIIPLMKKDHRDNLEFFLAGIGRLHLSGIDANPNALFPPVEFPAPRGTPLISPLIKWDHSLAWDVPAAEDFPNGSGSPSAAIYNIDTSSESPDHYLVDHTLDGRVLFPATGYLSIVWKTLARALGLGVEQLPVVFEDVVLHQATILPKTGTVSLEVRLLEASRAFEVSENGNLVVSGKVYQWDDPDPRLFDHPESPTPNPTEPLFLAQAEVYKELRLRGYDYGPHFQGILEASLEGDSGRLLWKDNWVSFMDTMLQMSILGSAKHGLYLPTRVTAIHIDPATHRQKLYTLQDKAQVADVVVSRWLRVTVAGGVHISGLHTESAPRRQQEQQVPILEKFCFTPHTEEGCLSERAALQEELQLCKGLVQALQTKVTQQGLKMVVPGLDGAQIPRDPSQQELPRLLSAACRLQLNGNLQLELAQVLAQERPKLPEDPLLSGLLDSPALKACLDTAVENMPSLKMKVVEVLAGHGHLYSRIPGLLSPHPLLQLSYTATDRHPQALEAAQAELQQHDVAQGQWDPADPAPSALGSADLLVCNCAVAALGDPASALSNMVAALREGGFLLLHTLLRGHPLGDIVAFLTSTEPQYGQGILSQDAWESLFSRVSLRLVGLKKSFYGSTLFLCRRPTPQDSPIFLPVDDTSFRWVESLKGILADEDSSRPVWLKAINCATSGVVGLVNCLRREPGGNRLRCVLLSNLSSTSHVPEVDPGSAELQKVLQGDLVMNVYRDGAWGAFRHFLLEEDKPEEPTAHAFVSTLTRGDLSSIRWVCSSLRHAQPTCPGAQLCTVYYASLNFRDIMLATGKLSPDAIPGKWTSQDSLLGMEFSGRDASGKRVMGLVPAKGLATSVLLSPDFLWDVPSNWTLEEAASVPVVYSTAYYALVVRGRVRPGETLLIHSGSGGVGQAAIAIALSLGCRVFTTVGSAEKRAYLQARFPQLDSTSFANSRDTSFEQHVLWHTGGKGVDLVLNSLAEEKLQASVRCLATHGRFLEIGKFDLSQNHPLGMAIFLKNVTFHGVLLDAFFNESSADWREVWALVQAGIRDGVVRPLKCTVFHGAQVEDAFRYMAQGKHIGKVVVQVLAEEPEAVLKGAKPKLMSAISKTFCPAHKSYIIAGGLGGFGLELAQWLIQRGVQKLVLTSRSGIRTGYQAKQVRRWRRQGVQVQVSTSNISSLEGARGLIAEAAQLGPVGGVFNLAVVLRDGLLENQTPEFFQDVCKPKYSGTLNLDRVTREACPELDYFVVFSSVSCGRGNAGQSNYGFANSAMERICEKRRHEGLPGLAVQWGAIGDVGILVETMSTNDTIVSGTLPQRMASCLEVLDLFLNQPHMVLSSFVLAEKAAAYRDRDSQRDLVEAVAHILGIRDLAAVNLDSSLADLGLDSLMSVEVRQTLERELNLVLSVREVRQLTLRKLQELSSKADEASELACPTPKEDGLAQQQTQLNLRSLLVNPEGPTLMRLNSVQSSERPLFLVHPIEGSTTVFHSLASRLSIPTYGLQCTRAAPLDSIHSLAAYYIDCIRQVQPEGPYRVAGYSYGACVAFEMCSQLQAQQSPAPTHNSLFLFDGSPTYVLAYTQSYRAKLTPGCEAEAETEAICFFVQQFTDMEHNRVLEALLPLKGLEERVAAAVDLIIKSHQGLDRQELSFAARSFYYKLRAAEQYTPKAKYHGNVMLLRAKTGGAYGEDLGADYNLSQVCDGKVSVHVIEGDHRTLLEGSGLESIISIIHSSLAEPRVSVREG

Assays:
[1] = target: Estrogen receptor (Homo sapiens) (UniProt P03372); experiment: OT_ER_ERaERa_1440: Odyssey Thera (OT) 24-hour HEK293T Protein-Complementation Assay for Estrogen Receptor-alpha/-alpha Homodimer (AID 2283349; active = hit-call score of the fitted dose curve at least 0.9, where 1 is the maximum;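 also: hits raise fluorescence above DMSO for agonists and antagonists alike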)
Outline: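 Cells (HEK293T) carrying the fragment-tagged ERα LBD (aa 310-547) pair are treated with chemical for 24 hours. Nuclear and/or cytoplasmic fluorescence is then quantified on a laser scanning cytometer. Activity is scored as signal gain against DMSO.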

[2] = CCTE_Shafer_MEA_dev_LDH: CCTE's Lactate Dehydrogenase Assay for Cytotoxicity in the Neural Network Formation Assay, Shafer Lab (AID 2284068; active = hit-call score of the fitted dose curve at least 0.9, where 1 is the maximum;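 also: exposure for twelve days from plating with re-dosing on DIV 5 and 9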)
Outline: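 Developing rat cortical networks on MEA plates are exposed to compound for 12 days from plating. LDH activity is measured spectrophotometrically, with DMSO as baseline.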

[3] = target: human Neurokinin, NK2 Receptor, TACR2 (gene 6865) (UniProt P21452); experiment: NVS_GPCR_hNK2: NovaScreen (NVS) G Protein-Coupled Receptor Assay for human Neurokinin, NK2 Receptor (AID 2283278; active = hit-call score of the fitted dose curve at least 0.9, where 1 is the maximum;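 also: actives reduce bound radioligand signal relative to DMSO baseline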)
[4] = read-out: JUN Transcription Factor, JUN (gene 3725); experiment: LTEA_HepaRG_JUN: Life Technologies and Expression Analysis (LTEA) Assay for JUN Transcription Factor using HepaRG (AID 2283513); conditions: actives raise or lower the signal; mRNA level, 48 h
Outline: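 HepaRG, 48 h exposure, 8-pt half-log series top 100 uM, 0.5% DMSO, duplicate. JUN mRNA by qRT-PCR (Fluidigm), housekeeping-normalized (ACTB/GAPDH/POLR2A); bidirectional curve fit vs DMSO baseline.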

[5] = system: rat Norepinephrine Transporter (NET), gene 83511; experiment: NVS_TR_rNET: NovaScreen (NVS) Transporter Assay for rat Norepinephrine Transporter (NET) (AID 2283373; active = hit-call score of the fitted dose curve at least 0.9, where 1 is the maximum)
[6] = read-out: ABC Transporter (ABCC2), ABCC2 (gene 1244); experiment: LTEA_HepaRG_ABCC2: Life Technologies and Expression Analysis (LTEA) Assay for ABC Transporter (ABCC2) using HepaRG (AID 2283464); conditions: actives raise or lower the signal; mRNA level, 48 h
Outline: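 qRT-PCR (TaqMan, Fluidigm array) read-out of ABCC2 mRNA, normalized to three housekeeping genes. Differentiated HepaRG cells were treated 48 h in serum-free induction medium with 8-point half-log series from 100 uM in 0.5% DMSO; curves fitted bidirectionally relative to DMSO.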

[7] = target: human IkappaB Kinase alpha (IKKa), CHUK (gene 1147) (UniProt O15111); experiment: NVS_ENZ_hIKKa: NovaScreen (NVS) Enzymatic Assay for human IkappaB Kinase alpha (IKKa) (AID 2283167; active = hit-call score of the fitted dose curve at least 0.9, where 1 is the maximum)
Outline: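 Compounds first run in duplicate at 25 uM, those meeting threshold (e.g. 30% inhibition) retested to maximum 50 uM. Enzyme activity of recombinant IKKa measured by fluorescence with electrophoretic mobility shift separation, 1 hour post-dosing, DMSO baseline.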

[8] = read-out: Cytochrome P450 (CYP2B6), CYP2B6 (gene 1555); experiment: LTEA_HepaRG_CYP2B6: Life Technologies and Expression Analysis (LTEA) Assay for Cytochrome P450 (CYP2B6) using HepaRG (AID 2283481); conditions: actives raise or lower the signal; mRNA level, 48 h
Outline: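 Read-out is CYP2B6 mRNA by TaqMan qRT-PCR, normalized to three housekeeping genes and fitted bidirectionally against 0.5% DMSO baseline. Human HepaRG cells received test chemicals for 48 h, top concentration 100 uM, half-log dilutions.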

[9] = read-out: Cyclin D1 (CCND1), CCND1 (gene 595); experiment: LTEA_HepaRG_CCND1: Life Technologies and Expression Analysis (LTEA) Assay for Cyclin D1 (CCND1) using HepaRG (AID 2283451); conditions: actives raise or lower the signal; mRNA level, 48 h
Outline: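 qRT-PCR (Fluidigm 96.96 array) read-out of transcript level, housekeeping-normalized (ACTB/GAPDH/POLR2A). HepaRG cells, 48 h chemical exposure, 8-point half-log series from 100 uM, 0.5% DMSO vehicle; gain or loss relative to DMSO baseline.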

[10] = target: Estrogen receptor (Homo sapiens) (UniProt P03372); experiment: OT_ERa_GFPERaERE_0120: Odyssey Thera (OT) 2-hour HeLa Transcription Induction Assay for Estrogen Receptor (AID 2283382; active = hit-call score of the fitted dose curve at least 0.9, where 1 is the maximum)
Outline: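 Fluorescence microscopy read-out: inducible fluorescent protein reporter in HeLa cells, imaged 2 h post-dose. Signal increase over DMSO negative control fitted as single primary endpoint via high content image analysis.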

[11] = ACEA_AR_antagonist_AUC_viability: ACEA Biosciences xCELLigence Real-Time Cell Analysis on Androgen Receptor Antagonism for Viability (AID 2283776; active = hit-call score of the fitted dose curve at least 0.9, where 1 is the maximum;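 also: 22Rv1 human prostate cancer cells growing on impedance electrode plates; area under impedance growth curve at 80 h after dosing as viability; hits lower the growth signal relative to DMSO meaning cytotoxicity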)
Outline: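 Viability endpoint from label-free cell-index monitoring: 22Rv1 cultures treated with an eight-point 1:4 dilution series starting at 100 uM final, AUC at 80 h fitted against DMSO.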

[12] = target: Retinoic acid receptor RXR-alpha (Homo sapiens) (UniProt P19793); experiment: OT_NURR1_NURR1RXRa_1440: Odyssey Thera (OT) 24-hour HEK293T Protein Complementation Assay for Nurr1/retinoid X receptor (RXR) (AID 2283386; active = hit-call score of the fitted dose curve at least 0.9, where 1 is the maximum)
Outline: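 Fluorescence PCA read-out; HEK293T; 24 h post-dose; bait/prey fused to reporter fragments; gain-of-signal fit vs DMSO negative control.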

[13] = read-out: CFLAR gene, CFLAR (gene 8837); experiment: LTEA_HepaRG_CFLAR: Life Technologies and Expression Analysis (LTEA) Assay for CFLAR gene using HepaRG (AID 2283455); conditions: actives raise or lower the signal; mRNA level, 48 h
Outline: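 qRT-PCR read-out (Fluidigm/TaqMan) of CFLAR mRNA, normalized to three housekeeping genes, in differentiated human HepaRG cells after 48 h chemical exposure; 8-point half-log series from 100 uM in 0.5% DMSO; bidirectional curve fitting versus DMSO.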

[14] = read-out: Pro-epidermal growth factor (Homo sapiens) (UniProt P01133); experiment: LTEA_HepaRG_EGF: Life Technologies and Expression Analysis (LTEA) Assay for Epidermal growth factor (EGF) using HepaRG (AID 2283489); conditions: actives raise or lower the signal; mRNA level, 48 h
Outline: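 qRT-PCR readout of EGF transcript after 48 h chemical exposure of HepaRG cells; eight concentrations from 100 uM down in half-log steps, duplicate wells, 0.5% DMSO vehicle. Bidirectional curve fitting against DMSO baseline.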

[15] = read-out: Insulin-like growth factor-binding protein 1 (IGFBP1), IGFBP1 (gene 3484); experiment: LTEA_HepaRG_IGFBP1: Life Technologies and Expression Analysis (LTEA) Assay for Insulin-like growth factor-binding protein 1 (IGFBP1) using HepaRG (AID 2283508); conditions: actives raise or lower the signal; mRNA level, 48 h
Outline: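 qRT-PCR mRNA read-out (TaqMan, Fluidigm array), normalised to three housekeeping genes; HepaRG cells, 48 h exposure, 8-pt half-log series from 100 uM, 0.5% DMSO vehicle; bidirectional curve fit vs DMSO baseline.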

[16] = read-out: X-box binding protein 1 (XBP1), XBP1 (gene 7494); experiment: LTEA_HepaRG_XBP1: Life Technologies and Expression Analysis (LTEA) Assay for X-box binding protein 1 (XBP1) using HepaRG (AID 2283540); conditions: actives raise or lower the signal; mRNA level, 48 h
Outline: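 HepaRG, 48 h exposure, 8-pt half-log CRC top 100 uM, 0.5% DMSO vehicle, duplicates. Readout: TaqMan qRT-PCR of XBP1 mRNA, housekeeping-normalised (ACTB/GAPDH/POLR2A); bidirectional fit vs DMSO baseline.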

[17] = read-out: Fatty acid synthase (Homo sapiens) (UniProt P49327); experiment: LTEA_HepaRG_FASN: Life Technologies and Expression Analysis (LTEA) Assay for Fatty Acid Synthase (FASN) using HepaRG (AID 2283448); conditions: actives raise or lower the signal; mRNA level, 48 h
Outline: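 HepaRG, 48 h exposure, 8-pt half-log series top 100 uM, 0.5% DMSO vehicle, duplicates. Readout: FASN transcript by Fluidigm qRT-PCR; housekeeping-normalized; bidirectional curve fit vs DMSO baseline.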

[18] = CCTE_Shafer_MEA_acute_per_network_burst_electrodes_number_mean: CCTE's Neural Acute Assay for Mean Number of Electrodes in a Network Burst, Shafer Lab (AID 2284021);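 also: curves fitted for decreases only so hits reduce electrodes per burst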
Outline: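 Readout: % change in mean electrodes active per network burst, post- vs pre-treatment, each well. Spikes detected at 8x rms noise after 300-5000 Hz band-pass; rat cortical cultures, DIV 13/15, compounds 0.03-40 uM, DMSO baseline.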

COP(=S)(OC)Oc1ccc([N+](=O)[O-])cc1
outcome [1]: inactive | AC50 [2]: active: 23.1 µM

CN(C)[C@@H]1C(=O)C(C(N)=O)=C(O)[C@@]2(O)C(=O)C3=C(O)c4c(O)cccc4[C@@](C)(O)[C@H]3C[C@@H]12
AC50 [3]: active: 18.5 µM | outcome [4]: inactive

Nc1ccc(Oc2ccc(N)cc2)cc1
outcome [5]: inactive | outcome [6]: inactive

CC(C)O.CC(C)O.OCCN(CCO)CCO.OCCN(CCO)CCO.[Ti]
outcome [7]: inactive | AC50 [8]: active: 14.1 µM

C1CC2OC2CC1C1CO1 (stereo not drawn)
outcome [9]: inactive

O=[N+]([O-])c1ccc(Cl)c([N+](=O)[O-])c1
AC50 [10]: active: 12.4 µM | AC50 [11]: active: 25.6 µM

CC(C)N(Cc1ccccc1)C(=O)C(C)(C)C
outcome [12]: inactive | outcome [13]: inactive | outcome [14]: inactive | outcome [15]: inactive | outcome [16]: inactive

CCC(C)(C)c1ccc(O)cc1
outcome [17]: inactive | outcome [18]: inactive
